The test concerns the target POU5F1 (pig (endogenous in pEPSCs)) (UniProt Q9TSV5). Put plainly: co-IP; endogenous POU5F1 in pEPSCs immunoprecipitated with a POU5F1 antibody; Western blot for FOXH1 and POU5F1. A general note: In western blotting, separated proteins are transferred to a membrane and probed.

Chains of the proteins cited; added tags and fusions are not shown.
UniProt Q9TSV5: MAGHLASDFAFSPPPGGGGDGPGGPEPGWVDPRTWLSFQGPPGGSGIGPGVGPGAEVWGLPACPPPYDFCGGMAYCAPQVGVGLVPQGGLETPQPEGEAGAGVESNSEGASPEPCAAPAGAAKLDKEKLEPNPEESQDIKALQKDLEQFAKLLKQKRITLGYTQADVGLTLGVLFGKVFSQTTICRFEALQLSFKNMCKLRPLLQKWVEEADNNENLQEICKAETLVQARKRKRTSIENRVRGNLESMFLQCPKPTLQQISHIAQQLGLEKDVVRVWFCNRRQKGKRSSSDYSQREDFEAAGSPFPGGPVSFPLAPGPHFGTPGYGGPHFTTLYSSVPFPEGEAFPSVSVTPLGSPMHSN

Results are given in words; binding and its absence hold for the method and conditions named. Binding seen in cells or lysates may run through a third protein. Some results given as binding are weak or reduced against the parent protein; the word gives no strength.

B1: FOXH1 (FAST1, forkhead activin signal transducer 1) (protein, UniProt F1RSP3 1-354)
chain: MGPCSNPRLELPGGQSPSEPPKRRKKRYLRHDKPPYTYLAMIALVIQAAPSRRLKLAQIIRQVQAVFPFFRDDYEGWKDSIRHNLSSNRCFRKVPKDPAKPQAKGNFWAVDVSLIPAEALRLQNTALCRRWQSRGARGAFAKDLGPYVLHGRPYRPPSPQPQPCEGFSIKSLLGDSREGAPRSSPGRSGSQGSGEEEVPLPVLPSRRPPWPLCPLPGSLSAEGETSQGGTSRPEARAWPLHLLQGTPDPGGLAGGGHRASLWGQLPTSYLPIYTPNVVMPLAPLPPPSCPGCPPSTSTAYWRVAPETHGPPGLLWDLDALFQGVPPNKSIYDVWVSQPRDLAAPTPGWLLSDSL
B1: the binding entry is listed as “binds”.
